According to PubChem BioAssay AID540256 (National Center for Advancing Translational Sciences (NCATS), 2011):
Hit rate of the full screen: of about 300,000 compounds, about 3,700 (1.2%) were called active. The inconclusive results got no clear call from the source; some entries with a clear call stand among them for comparison. The call rests on the fitted dose curve; tested in HEK293 cells. Where the call is inconclusive, the potency comes from a doubtful curve fit.
Potency means the concentration at half of the fitted maximal effect.

Assay: qHTS for Inhibitors of binding or entry into cells for Lassa Virus; further: nearly all actives have a fitted effect of over 50% in size
Conditions: Lassa virus pseudotype entry inhibition, cell reporter; series mostly up to 37.9 µM
In the case of CCOC(=O)Cc1nnc(NC(=O)CSc2ccc(C)cc2)s1, the Potency is reported as inconclusive: 2.06 µM [inhibitor, partial curve, poor fit].
With CCOc1ccccc1/C=N/Nc1ccnc(=O)[nH]1 the Potency was inconclusive: 25.1 µM [inhibitor, partial curve, poor fit].
In the case of Cc1ccc(C2c3[nH]c4ccccc4c3CCN2C(=O)CSc2ccccc2)cc1 (configuration not stated), the Potency is reported as active: 10 µM.
With CN(C)c1nc(-c2ccccn2)nnc1-c1ccccc1 the Potency was inconclusive: 3.55 µM [inhibitor, full curve].
For S=C(S)N1CCCC1, the Potency was inconclusive: 5.8 µM [inhibitor, partial curve, poor fit].
In the case of Cc1ccc(S(=O)(=O)NCC(=O)NNC(=O)c2ccc(Br)cc2)cc1C, the Potency is reported as inconclusive: 20 µM [activator, partial curve, poor fit].
In the case of Cc1cc(C=O)c(C)n1-c1ccc(N2CCCCC2)c([N+](=O)[O-])c1, the Potency is reported as inconclusive: 15.8 µM [inhibitor, partial curve, poor fit].
With Cc1cc(C(=O)NCc2ccc(C(=O)O)o2)c(C)o1 the Potency was “inactive”.
With COc1ccc(-c2ccc(=O)n(CC(=O)Nc3ccccc3C(F)(F)F)n2)cc1 the Potency was “inactive”.
For Cc1c(C(=O)Nc2cccc(F)c2)cnn1-c1ccccc1, the Potency was inconclusive: 1.26 µM [activator, single point].
With O=C(NC(=S)NCc1nc2ccccc2[nH]1)c1ccccc1F the Potency was inconclusive: 0.355 µM [activator, full curve, poor fit].
In the case of CCOc1ccc(Nc2nc(N)nc(CN(C)C3CCCCC3)n2)cc1, the Potency is reported as inconclusive: 35.5 µM [activator, single point].
For O=C(Nc1c(C(=O)N2CCN(c3ccccc3F)CC2)oc2ccccc12)c1ccc(Br)o1, the Potency was “inactive”.
For Cc1cc(=O)[nH]c(N=N/C(=N/Nc2ccccc2C)c2ccccc2)n1, the Potency was active: 3.98 µM.
In the case of O=[N+]([O-])c1ccc2nc(-c3ccc(OC(F)F)cc3)cn2c1, the Potency is reported as inconclusive: 3.98 µM [inhibitor, full curve].
In the case of COc1cccc(/C=N/Nc2ncnc(Cl)c2N)c1O, the Potency is reported as active: 3.66 µM.
With N#Cc1cc2c(nc1SCC(=O)Nc1sc3c(c1C#N)CCC3)CCCCCC2 the Potency was inconclusive: 18.3 µM [inhibitor, single point].
In the case of Cc1c(F)cccc1NS(=O)(=O)c1ccc2c(c1)c(=O)n(C)c(=O)n2C, the Potency is reported as inconclusive: 0.794 µM [inhibitor, full curve, poor fit].
In the case of Cc1ccccc1Nc1ccc(S(=O)(=O)N2CCOCC2)cc1[N+](=O)[O-], the Potency is reported as inconclusive: 10.3 µM [inhibitor, partial curve, poor fit].
For Cc1ccc2cc3cc(C(=O)NCCCN4CCc5ccccc5C4)oc3nc2c1, the Potency was inconclusive: 35.5 µM [inhibitor, single point].
In the case of COc1ccc(CCNC(=O)c2ccc3c(c2)S(=O)(=O)N=C2CCCCCN23)cc1, the Potency is reported as inconclusive: 35.5 µM [inhibitor, single point].
For COc1ccc(-c2noc(CCC(=O)NCCc3cccc(C)c3)n2)cc1, the Potency was inconclusive: 13 µM [inhibitor, partial curve, poor fit].
In the case of COC(=O)c1ccccc1NC(=O)/C=C/c1cc(OC)c(OC)c(OC)c1, the Potency is reported as inconclusive: 12.6 µM [inhibitor, single point].
In the case of OC1CCN(C(=S)NCCc2ccccc2)CC1, the Potency is reported as “inactive”.
In the case of N=C1c2ccccc2CN1CC(=O)c1ccccc1, the Potency is reported as inconclusive: 10 µM [inhibitor, single point].
For Cc1ccc(-n2nc(C)c3c2OC(N)=C(C#N)C3c2ccccc2F)cc1 (configuration not stated), the Potency was inconclusive: 22.4 µM [inhibitor, partial curve, poor fit].
With COc1ccc(CN(C(C)=O)c2cccc(C)c2C)cc1 the Potency was inconclusive: 25.1 µM [inhibitor, single point].
For Cc1nc(C)c(C(=O)Nc2ncc([N+](=O)[O-])s2)o1, the Potency was active: 5.62 µM.
For Cc1cccc(OCC(=O)NC(C)C(=O)N/N=C/c2c(OCc3ccccc3)ccc3ccccc23)c1 (configuration not stated), the Potency was “inactive”.
For CCOC(=O)CSc1ncnc2c1cnn2-c1ccc(C)cc1, the Potency was “inactive”.
For Cc1ccc(S(=O)(=O)c2c(C)nn(C(C)(C)C)c2OC(=O)C2CCCC2)cc1, the Potency was inconclusive: 22.4 µM [inhibitor, single point].
For COc1cc(CNC(=O)C2CC2)ccc1OCc1ccccc1, the Potency was inconclusive: 35.5 µM [inhibitor, single point].
For Cc1nnc(SCc2cccc3ccccc23)s1, the Potency was inconclusive: 7.08 µM [activator, partial curve, poor fit].
With Cc1ccc(C(=O)Cn2c(C(=O)/C=C/c3ccccc3)nc3ccccc32)cc1 the Potency was inconclusive: 32.6 µM [inhibitor, single point].
In the case of CCc1nn2c(=O)cc(COC(=O)c3ccccc3NC(=O)c3ccc(C(C)(C)C)cc3)nc2s1, the Potency is reported as inconclusive: 3.55 µM [activator, single point].
With O=C(NCCCN1CCN(c2ccccc2)CC1)c1ccc2nc(CCc3ccccc3)oc2c1 the Potency was inconclusive: 15.8 µM [inhibitor, single point].
In the case of C=CCn1c(=O)/c(=C/c2ccc(O)cc2)s/c1=C(/C#N)c1nnc2n1CCCCC2, the Potency is reported as inconclusive: 7.3 µM [inhibitor, partial curve].
With CCS(=O)(=O)c1ncc(Cl)c(C(=O)Nc2ccccc2OC)n1 the Potency was inconclusive: 5.62 µM [inhibitor, single point].
In the case of O=C(c1ccccc1Cc1ccccc1)N1CCN(S(=O)(=O)c2ccccc2)CC1, the Potency is reported as inconclusive: 35.5 µM [inhibitor, single point].
With COc1ccc(NC(=O)C2CCCN(c3c4c(nc5ncnn35)CCC4)C2)cc1OC (configuration not stated) the Potency was “inactive”.
For COc1ccc(NC(=O)Nc2ccccc2F)cc1, the Potency was inconclusive: 5.8 µM [inhibitor, partial curve, poor fit].
For O=C(N/C(=C\c1ccc(Br)cc1)c1nc2ccccc2[nH]1)c1ccco1, the Potency was inconclusive: 22.4 µM [inhibitor, partial curve, poor fit].
With COCCN1C(=O)/C(=C/c2ccc(OCc3ccc(C(=O)O)cc3)c(OC)c2)SC1=Nc1ccccc1 the Potency was inconclusive: 35.5 µM [inhibitor, single point].
In the case of Cc1ccnc(NC(=O)C2CC(=O)N(Cc3ccccc3)C2)c1 (configuration not stated), the Potency is reported as inconclusive: 15.8 µM [inhibitor, single point].
With CCN(C(=O)CN1CCN(c2cccc(C(F)(F)F)c2)CC1)c1c(N)n(Cc2ccccc2)c(=O)[nH]c1=O the Potency was inconclusive: 6.31 µM [inhibitor, single point].
For COc1ccc(/C(N)=N/OC(=O)c2cccc([N+](=O)[O-])c2C)cc1OC, the Potency was inconclusive: 35.5 µM [inhibitor, single point].
In the case of Cc1cc(NO)c(C(C)C)cc1N=O, the Potency is reported as “inactive”.
With O=c1cc(-c2cccc(F)c2)[nH]c2ccccc12 the Potency was inconclusive: 2.31 µM [inhibitor, partial curve].
For CCOC(=O)N1CCN(S(=O)(=O)c2ccc(C(=O)Nc3nnc(CC)o3)cc2)CC1, the Potency was inconclusive: 4.11 µM [activator, full curve, poor fit].
In the case of COc1ccc(C(=O)c2c(C(F)(F)F)oc3c2C(=O)c2ccccc2C3=O)cc1OC, the Potency is reported as active: 2.51 µM.
With CCOC(=O)CN1C(=O)C(=O)c2cccc(C)c21 the Potency was inconclusive: 29.1 µM [inhibitor, single point].
For COc1ccc(-c2csc3ncnc(N4CCN(S(=O)(=O)c5cccc(F)c5)CC4)c23)cc1, the Potency was inconclusive: 22.4 µM [inhibitor, single point].
With Cc1cccc(N(CC(=O)NCCSc2ccc(Cl)cc2)S(C)(=O)=O)c1C the Potency was inconclusive: 35.5 µM [inhibitor, single point].
For CC(C)NS(=O)(=O)c1ccc(NC(=O)C(C)Oc2ccc(C(=O)c3ccccc3)cc2)cc1 (configuration not stated), the Potency was inconclusive: 29.1 µM [inhibitor, partial curve, poor fit].
With CC(=O)CCc1oc2ccccc2c1-c1ccccc1 the Potency was “inactive”.
In the case of CC(C)(C)Nc1nc2nonc2nc1NC(C)(C)C, the Potency is reported as inconclusive: 10.3 µM [inhibitor, partial curve].
For CC(Oc1ccccc1)C(=O)N/N=C/c1ccccn1 (configuration not stated), the Potency was “inactive”.
With COc1ccc(CCNC(=O)CCCn2c(=O)c3ccccc3n(CC(=O)Nc3ccc(C)cc3Cl)c2=O)cc1OC the Potency was inconclusive: 35.5 µM [inhibitor, single point].
In the case of CC(NC(=O)CN1C(=O)COc2ccc(Cl)cc21)c1ccccc1 (configuration not stated), the Potency is reported as “inactive”.
For COc1ccc(CCNC(=O)NC23CC4CC(CC(C4)C2)C3)cc1, the Potency was “inactive”.
In the case of c1ccc2oc(-c3csc(N4CCOCC4)n3)cc2c1, the Potency is reported as inconclusive: 8.91 µM [inhibitor, partial curve, poor fit].
For C=CCn1c(SCC(=O)Nc2sccc2C(N)=O)nc2sc(CC)cc2c1=O, the Potency was inconclusive: 22.4 µM [inhibitor, single point].
For Cc1ccccc1C(=O)NC(=S)Nc1cccc(NC(=O)C(C)C)c1, the Potency was “inactive”.
For C/C(=N/NC(=O)c1ccc(Br)o1)c1ccc(C)o1, the Potency was inconclusive: 23.1 µM [activator, partial curve].
In the case of Cc1ccc2c(c1)N(C(=O)N1CCC(C(=O)NCc3cccs3)CC1)CC(C)O2 (configuration not stated), the Potency is reported as “inactive”.
With Cc1ccc(SCC(=O)N(Cc2nc(-c3ccccc3)no2)C(C)C)cc1 the Potency was inconclusive: 7.08 µM [inhibitor, partial curve].
For Cc1ccccc1/C=N/n1c(-c2ccccn2)n[nH]c1=S, the Potency was inconclusive: 0.891 µM [inhibitor, single point].
